Patent publication US20010033841A1, “Modulating platelet function” (priority 1998, published 2001)
At least one compound was matched to its structure with a doubt left.

Test system: SDF-1 induced platelet aggregation
Test: Inhibition of SDF-1 induced platelet aggregation
Assay type: cell-based, human
Conditions: wortmannin 20 μM, FIG. 5C
Method: Blood collection and platelet preparation. Human blood was collected from antecubital veins of healthy male or female, aspirin-free volunteers into syringes containing heparin (10 units/ml final concentration) for flow cytometry studies or sodium citrate (0.38% final concentration) for aggregation studies. Platelet rich plasma (PRP) was prepared by centrifugation of whole blood at 150 g for 15 minutes. Platelet poor plasma (PPP) was prepared by centrifugation of PRP at 1200 g for 15 minutes.
Aggregation studies. Experiments were performed using a Chrono-Log model 560 vs or 490-2D aggregometer (Havertown, Pa.). Aliquots of PRP (0.50 ml or 0.45 ml) with a platelet concentration of […] were incubated at 37° C. and stirred at 1000 rpm. Chemokines (PeproTech Inc., Rocky Hill, N.J., except SDF-1β, which was obtained from Genetics Institute, Boston, Mass.) were added and aggregation was measured as a percent change in optical density, with the instrument calibrated to yield 0% change in optical density for PRP and with the PPP 100% standard for change in optical density. Aggregation scale was set so that maximal aggregation gave 85-90% chart deflection. […]

## COC[C@H]1OC(=O)c2coc3c2[C@@]1(C)C1=C(C3=O)[C@@H]2CCC(=O)[C@@]2(C)C[C@H]1OC(C)=O [wortmannin]
  effect on SDF-1 induced platelet aggregation: completely inhibited
